These are yes or no findings as the source states them, for the method shown. For some of these results: Binding calls can cover weak binding; strength is not graded here. For some of these results: Binding seen in cells or lysates may run through a third protein.

Amino acid sequences for entries named in this document (tags omitted). A change or cut given only in a name is not applied to a line headed by its entry.
UniProt Q86CS2: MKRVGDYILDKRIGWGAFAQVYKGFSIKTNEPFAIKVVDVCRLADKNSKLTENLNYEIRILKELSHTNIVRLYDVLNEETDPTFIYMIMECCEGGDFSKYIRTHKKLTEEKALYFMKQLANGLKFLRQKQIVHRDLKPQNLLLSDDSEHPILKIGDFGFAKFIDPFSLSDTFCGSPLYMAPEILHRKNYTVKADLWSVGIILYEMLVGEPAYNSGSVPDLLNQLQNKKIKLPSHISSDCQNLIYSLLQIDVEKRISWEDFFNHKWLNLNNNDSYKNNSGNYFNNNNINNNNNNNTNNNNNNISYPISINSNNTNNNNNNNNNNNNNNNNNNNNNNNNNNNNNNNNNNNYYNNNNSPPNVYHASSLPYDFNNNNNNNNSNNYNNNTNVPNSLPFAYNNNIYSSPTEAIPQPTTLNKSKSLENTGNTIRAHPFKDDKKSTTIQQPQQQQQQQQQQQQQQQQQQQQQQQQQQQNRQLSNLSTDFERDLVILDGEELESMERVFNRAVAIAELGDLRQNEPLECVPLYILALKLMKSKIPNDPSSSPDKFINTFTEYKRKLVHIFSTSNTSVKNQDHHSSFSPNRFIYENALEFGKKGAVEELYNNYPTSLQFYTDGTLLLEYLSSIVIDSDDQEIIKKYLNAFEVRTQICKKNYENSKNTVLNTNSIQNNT
UniProt Q556J0: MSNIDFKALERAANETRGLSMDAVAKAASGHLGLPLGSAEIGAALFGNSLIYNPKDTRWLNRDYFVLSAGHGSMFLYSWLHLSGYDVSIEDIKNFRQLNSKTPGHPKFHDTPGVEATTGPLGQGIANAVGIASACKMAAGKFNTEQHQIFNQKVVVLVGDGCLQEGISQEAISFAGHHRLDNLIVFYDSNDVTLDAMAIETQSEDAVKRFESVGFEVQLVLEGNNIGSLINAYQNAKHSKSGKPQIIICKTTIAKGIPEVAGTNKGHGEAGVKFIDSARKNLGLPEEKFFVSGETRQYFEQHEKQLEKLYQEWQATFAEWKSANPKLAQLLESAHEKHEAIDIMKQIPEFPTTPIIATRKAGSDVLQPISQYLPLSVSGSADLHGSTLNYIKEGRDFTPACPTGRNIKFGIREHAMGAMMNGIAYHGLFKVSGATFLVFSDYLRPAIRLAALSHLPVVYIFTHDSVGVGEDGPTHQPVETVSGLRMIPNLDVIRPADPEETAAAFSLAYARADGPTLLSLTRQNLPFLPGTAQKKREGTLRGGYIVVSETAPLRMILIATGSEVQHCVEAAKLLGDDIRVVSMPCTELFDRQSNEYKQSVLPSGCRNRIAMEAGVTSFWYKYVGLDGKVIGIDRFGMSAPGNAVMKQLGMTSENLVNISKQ

The source of these data is article PMC4554924.

The target in experiment [1] is GFP-Atg1 (Dictyostelium discoideum) (UniProt Q86CS2). The experiment is described as follows: pull-down; GFP-trap beads on extracts of Dictyostelium cells co-expressing the GFP- and HA-tagged proteins; 10 mM Tris/HCl pH 7.5, 150 mM NaCl, 0.5 mM EDTA, overnight at 4°C; anti-HA Western blot. In general terms: A western blot detects proteins with antibodies after separation by electrophoresis.

For experiment [2], the target named is T1, putative Atg17 (DDB_G0295673) (Dictyostelium discoideum) (UniProt B0G140).
T1 sequence: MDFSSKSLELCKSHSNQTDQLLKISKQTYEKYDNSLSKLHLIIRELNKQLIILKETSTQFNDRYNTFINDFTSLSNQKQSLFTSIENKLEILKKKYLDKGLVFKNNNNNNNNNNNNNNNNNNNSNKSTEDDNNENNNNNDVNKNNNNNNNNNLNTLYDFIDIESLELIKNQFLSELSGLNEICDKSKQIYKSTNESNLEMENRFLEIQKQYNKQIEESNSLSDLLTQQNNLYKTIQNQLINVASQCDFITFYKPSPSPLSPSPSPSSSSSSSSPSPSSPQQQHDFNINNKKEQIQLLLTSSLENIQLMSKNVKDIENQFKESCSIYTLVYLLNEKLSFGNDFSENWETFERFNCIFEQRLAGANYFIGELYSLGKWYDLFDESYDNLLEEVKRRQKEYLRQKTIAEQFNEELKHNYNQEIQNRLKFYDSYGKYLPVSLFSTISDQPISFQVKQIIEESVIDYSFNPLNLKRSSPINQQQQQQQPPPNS
The experiment in a line: two-hybrid; pairwise analysis: atg genes in pACT2 and pLexA(1-202)+PL, S. cerevisiae TAT7.

The target of experiment [3] is Atg101 (DDB_G0288287) (Dictyostelium discoideum) (UniProt Q54J54). The description is as above.
For experiment [4], the target named is Atg16 (Dictyostelium discoideum). The experiment is described as above.

With “TKT fused with the HA epitope (TKT-HA) (from UniProt Q556J0) (enzyme)”, the binding entry in experiment [1] is “binds”.

With “putative FIP200, renamed AreB (DDB_G0268498) (Dictyostelium discoideum)”, the binding result in experiment [2] is “no binding”.

B1: putative Atg17 (DDB_G0295673) (protein, UniProt B0G140 1-488)
chain: MDFSSKSLELCKSHSNQTDQLLKISKQTYEKYDNSLSKLHLIIRELNKQLIILKETSTQFNDRYNTFINDFTSLSNQKQSLFTSIENKLEILKKKYLDKGLVFKNNNNNNNNNNNNNNNNNNNSNKSTEDDNNENNNNNDVNKNNNNNNNNNLNTLYDFIDIESLELIKNQFLSELSGLNEICDKSKQIYKSTNESNLEMENRFLEIQKQYNKQIEESNSLSDLLTQQNNLYKTIQNQLINVASQCDFITFYKPSPSPLSPSPSPSSSSSSSSPSPSSPQQQHDFNINNKKEQIQLLLTSSLENIQLMSKNVKDIENQFKESCSIYTLVYLLNEKLSFGNDFSENWETFERFNCIFEQRLAGANYFIGELYSLGKWYDLFDESYDNLLEEVKRRQKEYLRQKTIAEQFNEELKHNYNQEIQNRLKFYDSYGKYLPVSLFSTISDQPISFQVKQIIEESVIDYSFNPLNLKRSSPINQQQQQQQPPPNS
On to B1, for which, in experiment [3], the binding entry is given as “no binding”.

B2: Atg5 (protein, UniProt Q54GT9 1-398)
chain: MSSFDEDIKRSIWEGKIPIVFTLSPDDLTSHLSPSPYTLMAPRNSYFPLITSLVKDYFSSSTLVLLDEMWLEYRGIPLKWHLPIGVLYDTIVGNNNCNNSNNNNNNNNNNNNNNNNNNNNNNNNNNNNNNNNNNNNNNNNNNNNNNNIIMEQPYWNIVVHFQSYPDRILLRCPNIESVRTYYKNVLKEANFIKQGDITKINNLNINQSNDLWDGLKSHDYDKFWSVNKKLIPNSNKEYKNIPIRLIINYKPPIQELIPVFDENLVELTLENLFSRIPYESFSNFLNYNNNNNNNNINNNSPPLSPNSNNNNNNNNVDNSIENSLNQTNVESAEPEFSNLLQYIKATNAEYKIQGIQPSLKSSAVWLYEHFGHPDNFLYIVLIDPSQNNNNNNNNSNNY
Take B2: the binding entry in experiment [4] is “binds”.
